Publication PMC10145973, “Genomic Insights into Bacterial Resistance to Proline-Rich Antimicrobial Peptide Bac7” (Membranes, 2023)
Converted amounts (≈) assume the structure as drawn.

Columns and labels:
Assay in all cases: microbe, parasite or virus in culture
E. coli MDR 1057 B2 = conditions: Escherichia coli, MDR1057B2, 24 h, read-out: Minimum Inhibitory Concentration, B2
E. coli MDR 1057 B3 = conditions: Escherichia coli, MDR1057B3, 24 h, read-out: Minimum Inhibitory Concentration, B3
E. coli MDR 1057 WT = conditions: Escherichia coli, MDR1057WT, 24 h, read-out: Minimum Inhibitory Concentration, WT
E. coli MDR 1057 P1 = conditions: Escherichia coli, MDR1057P1, 24 h, read-out: Minimum Inhibitory Concentration, P1

CCC[C@@H]1C[C@@H](C(=O)N[C@@H]([C@H]2O[C@H](SC)[C@H](O)[C@@H](O)[C@H]2O)[C@H](C)Cl)N(C)C1 [Clindamycin]
MIC (E. coli MDR 1057 B2): 256 µM (≈ 109 µg/mL)
MIC (E. coli MDR 1057 B3): 128 µM (≈ 54.4 µg/mL)
MIC (E. coli MDR 1057 WT): 128 µM (≈ 54.4 µg/mL)
MIC (E. coli MDR 1057 P1): 256 µM (≈ 109 µg/mL)
